Experimental data taken from paper PMC8776765.
No constants are given. Whether binding was seen depends on the method and setting. Binding seen in cells or lysates may run through a third protein. Some binding calls cover weakened binding; strength is not graded here.

Sequences of proteins named here, by UniProt entry; tags and fusion partners are left off.
UniProt P70452: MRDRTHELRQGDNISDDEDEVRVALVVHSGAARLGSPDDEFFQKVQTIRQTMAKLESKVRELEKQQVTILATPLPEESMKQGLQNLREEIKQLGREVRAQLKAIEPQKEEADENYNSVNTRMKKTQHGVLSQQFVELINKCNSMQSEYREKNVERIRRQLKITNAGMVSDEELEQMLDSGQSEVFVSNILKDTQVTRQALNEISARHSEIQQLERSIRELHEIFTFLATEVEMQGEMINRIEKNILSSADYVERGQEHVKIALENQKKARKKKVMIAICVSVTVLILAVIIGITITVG
UniProt Q8K1M6: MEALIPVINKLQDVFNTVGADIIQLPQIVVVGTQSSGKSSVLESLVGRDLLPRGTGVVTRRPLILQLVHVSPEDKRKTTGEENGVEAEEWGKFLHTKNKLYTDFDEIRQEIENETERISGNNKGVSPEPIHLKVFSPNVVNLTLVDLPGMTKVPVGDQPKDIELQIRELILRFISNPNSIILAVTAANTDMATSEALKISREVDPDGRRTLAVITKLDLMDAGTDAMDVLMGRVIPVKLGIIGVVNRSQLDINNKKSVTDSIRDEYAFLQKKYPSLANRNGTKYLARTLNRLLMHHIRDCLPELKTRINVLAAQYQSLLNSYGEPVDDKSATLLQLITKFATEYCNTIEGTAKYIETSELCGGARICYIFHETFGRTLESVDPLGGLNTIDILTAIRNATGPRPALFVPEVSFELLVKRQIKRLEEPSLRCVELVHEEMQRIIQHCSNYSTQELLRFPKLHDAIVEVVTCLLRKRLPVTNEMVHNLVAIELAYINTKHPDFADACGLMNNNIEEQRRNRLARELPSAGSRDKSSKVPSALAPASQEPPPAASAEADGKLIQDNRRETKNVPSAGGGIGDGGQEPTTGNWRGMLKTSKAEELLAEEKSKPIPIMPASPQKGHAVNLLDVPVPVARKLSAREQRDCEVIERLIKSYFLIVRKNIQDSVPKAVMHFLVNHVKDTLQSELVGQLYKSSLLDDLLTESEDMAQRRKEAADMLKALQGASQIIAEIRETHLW

How the values were obtained:
[1] = molecular target: Syntaxin 4 (STX4) (mouse (endogenous in hindlimb skeletal muscle)) (UniProt P70452); assay: co-IP; 3 mg mouse whole-hindlimb extract (WT or skmSTX4-iKO) incubated with 3 µg STX4 antibody overnight at 4 °C, Protein-G agarose beads 2 h, washed three times with lysis buffer; immunoblot for Drp1; IgG control
[2] = molecular target: Syntaxin 4 (STX4) (mouse (endogenous in hindlimb skeletal muscle)) (UniProt P70452); assay: co-IP; mouse muscle mitochondrial fractions (0.5 mg protein per reaction) incubated with 0.5 µg STX4 antibody overnight at 4 °C, Protein-G agarose beads 2 h; immunoblot for Drp1; IgG control

- binding [1]: binds
- binding [2]: binds
Substance: dynamin-related protein (Drp1) (from UniProt Q8K1M6 1-736)
